PubChem BioAssay AID743454 | Peter MacCallum Cancer Centre | 2014
Here is one part, drawn at random, of about 18,000 reagents tested. Of all reagents, 450 (2.5%) got an active call. 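Single biological run; no consistent viability z cut-off exists, so the class columns, not z-scores, define the calls.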 No sequences are given here.

Test: 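Knock-downs lowering viability or raising caspase 3/7 activity in vorinostat-treated resistant cells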 (primary screen)
Cells: human HCT116-VR colon cancer cells, selected for vorinostat resistance
Knock-down reagent: siRNA pool against human genes, 40 nM siRNA pool
Duration: vorinostat for 24 h, read-out about 72 h after transfection
Treatment: vorinostat at 2.5 µM final
Measurement: 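Cell viability by CellTiter-Fluor and caspase 3/7 activity by luminescence, each scaled to mock wells per plate, duplicates averaged, then robust z-scored over all plates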
Reading the numbers: viability robust z-score: higher = more viable cells than screen typical; caspase robust z-score: higher = more caspase 3/7 activity than screen typical
Rule for the call: 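a knock-down is a hit when classed RV1 or RV2 for lowered viability, or CA1 or CA2 for caspase activation; those lethal without drug were dropped; hits were retested singly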

target gene | viability hit class | caspase hit class | viability robust z-score | caspase robust z-score | Call
WBP1L (WW domain binding protein 1 like) | no change | no change | -2.04 | 2.29 | inactive
RAB34 (RAB34, member RAS oncogene family) | no change | no change | -1.04 | 3.01 | inactive
SLC27A4 | no change | no change | 0.35 | -0.18 | inactive
RXFP3 (relaxin family peptide receptor 3) | no change | no change | -0.02 | 0.17 | inactive
MYO7B (myosin VIIB) | no change | no change | 0.72 | -1 | inactive
ABCG5 (ATP binding cassette subfamily G member 5) | no change | no change | 0.29 | 0.38 | inactive
KLF4 (KLF transcription factor 4) | no change | no change | -0.49 | 1.22 | inactive
WDR64 (WD repeat domain 64) | no change | no change | 0.44 | -0.78 | inactive
ZCCHC9 (zinc finger CCHC-type containing 9) | no change | no change | 0.5 | 0.58 | inactive
E2F8 (E2F transcription factor 8) | no change | no change | -0.06 | -0.75 | inactive
CORO1B (coronin 1B) | no change | no change | -0.36 | 3.52 | inactive
CLEC14A (C-type lectin domain containing 14A) | no change | no change | -0.19 | 0.4 | inactive
FAM107A (family with sequence similarity 107 member A) | no change | no change | -1.4 | 0.66 | inactive
KCNK5 (potassium two pore domain channel subfamily K member 5) | no change | no change | 0.88 | 0.75 | inactive
OR2M2 (olfactory receptor family 2 subfamily M member 2) | no change | no change | -0.9 | 1.8 | inactive
DIS3L2 (DIS3 like 3'-5' exoribonuclease 2) | no change | no change | 1.56 | -0.51 | inactive
ATP2B3 (ATPase plasma membrane Ca2+ transporting 3) | no change | no change | 0.68 | -0.2 | inactive
CDH7 (cadherin 7) | no change | no change | 0.34 | -0.64 | inactive
RRP9 | no change | no change | 0.34 | -0.67 | inactive
SPHKAP (SPHK1 interactor, AKAP domain containing) | no change | no change | 0.6 | 2.05 | inactive
FUS (FUS DNA/RNA binding protein) | no change | no change | -0.05 | -0.36 | inactive
ASB3 (ankyrin repeat and SOCS box containing 3) | no change | no change | -0.56 | 0.82 | inactive
LEPROTL1 (leptin receptor overlapping transcript like 1) | no change | no change | -1.1 | -0.48 | inactive
CDK2 (cyclin dependent kinase 2) | no change | no change | 0.04 | 0.22 | inactive
CD200R1L (CD200 receptor 1 like) | no change | no change | 1.23 | 0.81 | inactive
AP4M1 (adaptor related protein complex 4 subunit mu 1) | no change | no change | 0.88 | -0.92 | inactive
DAZ3 (deleted in azoospermia 3) | no change | no change | -0.07 | -0.58 | inactive
PES1 (pescadillo ribosomal biogenesis factor 1) | no change | no change | -1.82 | -0.13 | inactive
SNF8 (SNF8 subunit of ESCRT-II) | no change | no change | 0.66 | -0.25 | inactive
SLC1A6 | no change | no change | -1.58 | 0.47 | inactive
CLIP4 (CAP-Gly domain containing linker protein family member 4) | no change | no change | -0.94 | 0.05 | inactive
MBD5 (methyl-CpG binding domain protein 5) | no change | no change | 0.11 | 0.12 | inactive
SPATA12 (spermatogenesis associated 12) | no change | no change | 1.11 | 0.3 | inactive
ANGPT4 (angiopoietin 4) | no change | no change | -1.22 | 0.02 | inactive
SPMIP9 (sperm microtubule inner protein 9) | no change | no change | -0.27 | -0.07 | inactive
PC (pyruvate carboxylase) | no change | no change | 0.06 | -1.12 | inactive
GGNBP2 (gametogenetin binding protein 2) | no change | no change | -0.1 | -0.81 | inactive
ROBO1 (roundabout guidance receptor 1) | no change | no change | -0.11 | -0.19 | inactive
OR7A17 (olfactory receptor family 7 subfamily A member 17) | no change | no change | -1.01 | -0.33 | inactive
TAF5L (TATA-box binding protein associated factor 5 like) | no change | no change | 0.26 | -0.42 | inactive
PPP1CA (protein phosphatase 1 catalytic subunit alpha) | no change | no change | -0.14 | -0.06 | inactive
ZNF17 (zinc finger protein 17) | no change | no change | 1.09 | 1.55 | inactive
PLBD1 (phospholipase B domain containing 1) | no change | no change | -0.92 | 2.96 | inactive
SFTPD (surfactant protein D) | no change | no change | -0.32 | 0.35 | inactive
CDK12 (cyclin dependent kinase 12) | no change | no change | -0.66 | 0.1 | inactive
MUCL1 (mucin like 1) | no change | no change | -0.93 | 0.8 | inactive
HDDC3 (HD domain containing 3) | no change | no change | 0.73 | -0.62 | inactive
ZNF449 (zinc finger protein 449) | no change | no change | 1.01 | -0.9 | inactive
TNNI2 (troponin I2, fast skeletal type) | no change | no change | -0.52 | 2.62 | inactive
CMYA5 (cardiomyopathy associated 5) | no change | no change | -0.01 | -0.58 | inactive
FARSA (phenylalanyl-tRNA synthetase subunit alpha) | no change | no change | 1.21 | -0.5 | inactive
ZNF493 (zinc finger protein 493) | no change | no change | -0.18 | 1.9 | inactive
SPINK14 (serine peptidase inhibitor Kazal type 14 (putative)) | no change | no change | -0.22 | -1.04 | inactive
MAF1 (MAF1 negative regulator of RNA polymerase III) | no change | no change | 1.13 | 0.95 | inactive
OGDH (oxoglutarate dehydrogenase) | RV2 (reduced viability) | no change | -3.38 | -0.72 | active
LDLRAD3 (low density lipoprotein receptor class A domain containing 3) | no change | no change | -0.04 | -0.48 | inactive
GLYATL1 (glycine-N-acyltransferase like 1) | no change | no change | -0.79 | -0.91 | inactive

In a second layout: results already given.
target gene,viability hit class,caspase hit class,viability robust z-score,caspase robust z-score,Call
PPP1CA (protein phosphatase 1 catalytic subunit alpha),no change,no change,-0.14,-0.06,inactive
ZNF17 (zinc finger protein 17),no change,no change,1.09,1.55,inactive
PLBD1 (phospholipase B domain containing 1),no change,no change,-0.92,2.96,inactive
SFTPD (surfactant protein D),no change,no change,-0.32,0.35,inactive
